Reference: article PMC8034861
These are yes or no findings as the source states them, for the method shown. Binding seen in cells or lysates may run through a third protein. Some binding calls cover weakened binding; strength is not graded here. For some of these results: Sequences can lack the tags named with a protein.

The chains behind the UniProt entries cited, without tags or fusion partners.
UniProt P33176: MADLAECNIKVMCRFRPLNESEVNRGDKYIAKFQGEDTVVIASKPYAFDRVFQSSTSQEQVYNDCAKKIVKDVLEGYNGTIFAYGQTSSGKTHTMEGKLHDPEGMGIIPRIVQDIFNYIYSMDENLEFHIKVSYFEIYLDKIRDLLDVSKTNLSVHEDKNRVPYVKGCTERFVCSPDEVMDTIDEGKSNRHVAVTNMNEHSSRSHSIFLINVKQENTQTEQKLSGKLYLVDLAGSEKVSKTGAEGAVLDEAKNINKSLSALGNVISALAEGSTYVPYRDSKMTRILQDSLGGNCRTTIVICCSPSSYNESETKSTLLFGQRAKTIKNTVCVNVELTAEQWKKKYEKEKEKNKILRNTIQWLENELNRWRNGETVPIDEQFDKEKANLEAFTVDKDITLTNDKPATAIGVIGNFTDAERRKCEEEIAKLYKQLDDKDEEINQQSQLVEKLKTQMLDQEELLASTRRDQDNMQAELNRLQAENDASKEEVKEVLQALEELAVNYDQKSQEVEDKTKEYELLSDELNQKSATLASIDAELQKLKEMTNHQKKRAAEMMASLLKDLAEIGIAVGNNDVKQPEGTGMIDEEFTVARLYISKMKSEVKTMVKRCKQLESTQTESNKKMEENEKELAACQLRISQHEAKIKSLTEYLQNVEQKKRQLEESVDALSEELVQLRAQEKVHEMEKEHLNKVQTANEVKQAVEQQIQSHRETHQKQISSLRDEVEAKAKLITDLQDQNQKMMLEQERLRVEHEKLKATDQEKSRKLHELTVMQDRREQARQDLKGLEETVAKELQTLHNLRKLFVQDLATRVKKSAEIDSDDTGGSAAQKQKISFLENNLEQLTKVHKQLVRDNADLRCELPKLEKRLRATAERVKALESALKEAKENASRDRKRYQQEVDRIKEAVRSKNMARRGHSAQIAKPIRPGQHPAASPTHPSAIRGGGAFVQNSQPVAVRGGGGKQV

Assays:
[1] = target: T1, PR20 peptide as used in the proximity ligation assay (human); assay: proximity ligation; Duolink PLA in fixed human sMNs exposed to PR20; signals in cell body and processes; only the target purified
T1 sequence (peptide): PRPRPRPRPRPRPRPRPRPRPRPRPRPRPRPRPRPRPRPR

[2] = target: T2, hemagglutinin (HA)-tagged GP20 peptide (human); assay: co-IP; human iPSC-derived sMNs treated with 10 μM HA-labeled peptide for 3 hours, cross-linked with 1% paraformaldehyde, lysed (150 mM NaCl, 25 mM tris, 1 mM EDTA, 1% NP-40, 5% glycerol, pH 7.4); anti-HA magnetic beads, 1 hour at room temperature; immunoblot; only the target purified
T2 sequence (peptide): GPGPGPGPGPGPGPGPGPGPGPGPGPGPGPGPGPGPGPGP

[3] = target: T3, hemagglutinin (HA)-tagged PR20 peptide (human); assay: as above
T3 sequence (peptide): T1 sequence (peptide)

[4] = target: T4, hemagglutinin (HA)-tagged GR20 peptide (human); assay: as above
T4 sequence (peptide): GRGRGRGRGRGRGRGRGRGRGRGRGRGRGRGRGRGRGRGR

Which binding [1] does the source give for “KIF5B (kinesin-1), endogenous in human iPSC-derived spinal motor neurons (from UniProt P33176 1-963)” here?
Its binding is “binds”.

And the binding [2]?
Its binding is “no binding (tested: 10 μM peptide in the medium)”.

What about the binding [3] of the same substance?
The binding was “binds”.

And the binding [4]?
The binding was “binds”.
